Structures can show the parent of a compound that is named as a salt.
Assay: Water content by Karl Fischer method (Ph. Eur. 2.5.12)
Format: physicochemical
Conditions: active ingredient used in Example 1

Question: Which “water content of donepezil hydrochloride hydrate” value does the source give for COc1cc2c(cc1OC)C(=O)C(CC1CCN(Cc3ccccc3)CC1)C2 (stereo not shown) [donepezil hydrochloride hydrate] here?
Answer: 5.0%

— patent US20120283291A1, “SOLID PHARMACEUTICAL COMPOSITION COMPRISING DONEPEZIL HYDROCHLORIDE” (KRKA, TOVARNA ZDRAVIL D.D., NOVO MESTO, priority 2004, published 2012)
